Measurements reported in PubChem BioAssay AID504791 (Drosophila RNAi Screening Center, 2011).
The deposit covers about 23,000 reagents; shown is an unselected part of those that have a named target and a result. In the full data, 199 (0.86%) were called active. 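Plate-scaled ratios behind the calls are not deposited; printed light signals are raw; many rows marked increased or decreased are still called inactive.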 Reagents against one gene are numbered here. Names joined by + are all predicted targets of the reagent. Not given: the direction of the score.

Test: 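Genes of the fly required for silencing by miRNA, siRNA or endo-siRNA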 (primary screen)
System: Drosophila S2-derived reporter cells
Reagent: long dsRNA against Drosophila genes, about 150-250 ng dsRNA per well (siRNA assay); about 80-120 ng (miRNA assay)
Timing: about 5 days (siRNA assay); about 4 days (miRNA assay)
Conditions: copper sulfate induction of reporters: 25 µM (siRNA assay); 200 mM stated (miRNA assay), 1-2 days before reading
Measured: 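Dual luciferase assay: Renilla to firefly signal ratio in each well, scaled to the mean ratio of its plate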
Call rule: 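First-pass picks had plate-scaled ratios over 1.5 for the siRNA assay, over 1.6 for the miRNA assay, or under 0.6; two distinct dsRNAs had to score alike on retest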

target gene | reagent | stable siRNA reporter change | miRNA reporter change | stable assay Renilla, run 1 (luminescence) | stable assay firefly, run 1 (luminescence) | outcome
CG11791 | 1 | – | – | 9539 | 3.73e5 | inactive
CG1236 | 1 | – | – | 5968 | 3.98e5 | inactive
CG18539 | 1 | – | – | 6982 | 3.80e5 | inactive
CG10332 (retired record) + IM18 | 1 | – | – | 6536 | 3.76e5 | inactive
Vps51 | 1 | – | – | 9921 | 2.70e5 | inactive
Reg-2 | 1 | – | – | 11374 | 5.56e5 | inactive
CG42566 | 1 | – | – | 5196 | 3.81e5 | inactive
vap | 1 | – | – | 6992 | 4.16e5 | inactive
Cog1 | 1 | – | – | 6948 | 3.90e5 | inactive
tap | 1 | – | – | 6471 | 3.69e5 | inactive
CG33253 | 1 | – | – | 6320 | 4.69e5 | inactive
CG33253 | 2 | – | – | 3331 | 3.87e5 | inactive
CG10598 | 1 | – | – | 6027 | 4.84e5 | inactive
CalpA | 1 | – | – | 6315 | 2.80e5 | inactive
Npc1b | 1 | – | – | 5703 | 2.81e5 | inactive
kud | 1 | – | – | 8191 | 4.59e5 | inactive
CG14480 | 1 | – | – | 6979 | 3.74e5 | inactive
CG41099 | 1 | – | – | 5787 | 3.35e5 | inactive
CG41099 | 2 | – | – | 5306 | 3.91e5 | inactive
Spag1 | 1 | – | – | 6187 | 3.58e5 | inactive
CG10853 | 1 | – | – | 6332 | 2.77e5 | inactive
AGO1 | 1 | – | reporter ratio raised past the hit cutoff | 5932 | 2.62e5 | inactive
CG11327 | 1 | – | – | 7390 | 3.54e5 | inactive
CysRS-m | 1 | – | – | 10634 | 4.64e5 | inactive
CG8389 | 1 | – | – | 11203 | 5.07e5 | inactive
CG8389 | 2 | – | – | 3607 | 4.12e5 | inactive
CG32236 | 1 | – | – | 5427 | 4.22e5 | inactive
CG11714 | 1 | – | – | 8103 | 3.10e5 | inactive
t | 1 | – | – | 5355 | 3.56e5 | inactive
Rpn7 | 1 | reporter ratio raised past the hit cutoff | – | 7732 | 2.00e5 | active
ATPsynB | 1 | – | – | 7511 | 4.31e5 | inactive
lqfR | 1 | – | – | 8647 | 3.08e5 | inactive
lqfR | 2 | – | – | 7941 | 5.22e5 | inactive
skl | 1 | – | – | 7462 | 3.80e5 | inactive
Elp4 | 1 | – | – | 5219 | 2.96e5 | inactive
Syn1 + CG7370 | 1 | – | – | 4099 | 3.35e5 | inactive
CG15916 | 1 | – | – | 5411 | 3.62e5 | inactive
CG10505 | 1 | – | – | 5668 | 3.29e5 | inactive
CG1572 | 1 | – | reporter ratio lowered past the hit cutoff | 8642 | 6.11e5 | inactive
Ccp84Ad | 1 | – | – | 4679 | 4.35e5 | inactive
Ccp84Ad | 2 | – | – | 4083 | 3.82e5 | inactive
CG7409 | 1 | – | – | 5684 | 4.53e5 | inactive
Sgs8 | 1 | – | – | 6671 | 4.16e5 | inactive
CG10098 | 1 | – | – | 7859 | 4.37e5 | inactive
Med | 1 | – | – | 5432 | 2.27e5 | inactive
CG15638 | 1 | – | – | 6446 | 3.03e5 | inactive
fws | 1 | – | – | 24915 | 2.35e6 | inactive
E(spl)m2-BFM | 1 | reporter ratio raised past the hit cutoff | – | 5175 | 1.61e5 | inactive
E(spl)m2-BFM | 2 | – | – | 4356 | 3.40e5 | inactive
CG13428 | 1 | – | – | 7190 | 4.00e5 | inactive
eIF3l | 1 | – | – | 6311 | 3.43e5 | inactive
COX7AL | 1 | – | – | 7538 | 5.26e5 | inactive
CG5928 | 1 | – | – | 5331 | 4.66e5 | inactive
Gnf1 | 1 | – | – | 9163 | 3.87e5 | inactive
CG33792 | 1 | – | – | 8282 | 5.19e5 | inactive
bchs | 1 | – | – | 8090 | 4.95e5 | inactive
He + NimB5 | 1 | – | – | 4428 | 3.97e5 | inactive
